Among the data in paper PMC5865154 are binding values, retold here.

By UniProt entry, the sequences of proteins in these tests, tags left out.
UniProt P54098: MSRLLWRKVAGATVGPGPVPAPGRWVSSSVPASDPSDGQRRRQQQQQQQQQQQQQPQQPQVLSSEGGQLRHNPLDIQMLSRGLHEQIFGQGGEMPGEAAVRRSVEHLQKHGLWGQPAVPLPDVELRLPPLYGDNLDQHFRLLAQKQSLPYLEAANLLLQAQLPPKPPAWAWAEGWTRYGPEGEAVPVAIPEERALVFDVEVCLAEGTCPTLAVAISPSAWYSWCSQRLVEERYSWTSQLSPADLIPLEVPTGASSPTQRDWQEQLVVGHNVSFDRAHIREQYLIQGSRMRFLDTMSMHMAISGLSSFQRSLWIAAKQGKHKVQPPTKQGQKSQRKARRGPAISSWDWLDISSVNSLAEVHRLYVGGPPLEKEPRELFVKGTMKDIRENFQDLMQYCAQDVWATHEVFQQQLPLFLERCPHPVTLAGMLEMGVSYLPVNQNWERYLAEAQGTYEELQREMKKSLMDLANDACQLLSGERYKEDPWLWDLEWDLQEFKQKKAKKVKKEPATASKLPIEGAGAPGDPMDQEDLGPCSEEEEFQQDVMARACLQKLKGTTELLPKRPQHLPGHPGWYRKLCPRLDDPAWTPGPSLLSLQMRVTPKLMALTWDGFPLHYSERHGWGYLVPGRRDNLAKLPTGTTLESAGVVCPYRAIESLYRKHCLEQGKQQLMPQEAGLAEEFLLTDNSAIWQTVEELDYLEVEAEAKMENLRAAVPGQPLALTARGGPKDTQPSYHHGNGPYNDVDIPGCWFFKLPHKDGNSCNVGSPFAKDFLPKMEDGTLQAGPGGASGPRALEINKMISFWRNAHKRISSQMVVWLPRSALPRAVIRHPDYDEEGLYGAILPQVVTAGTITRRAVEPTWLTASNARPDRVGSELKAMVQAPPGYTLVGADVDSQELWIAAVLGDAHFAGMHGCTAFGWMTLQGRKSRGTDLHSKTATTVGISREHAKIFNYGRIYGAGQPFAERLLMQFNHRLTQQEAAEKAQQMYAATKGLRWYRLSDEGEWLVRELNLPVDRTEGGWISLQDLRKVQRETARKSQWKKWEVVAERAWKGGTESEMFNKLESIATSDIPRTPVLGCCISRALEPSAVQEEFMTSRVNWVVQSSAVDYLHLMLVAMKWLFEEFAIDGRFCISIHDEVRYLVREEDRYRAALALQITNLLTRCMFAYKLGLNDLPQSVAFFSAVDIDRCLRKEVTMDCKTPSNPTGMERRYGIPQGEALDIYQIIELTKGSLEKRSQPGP

Read-outs that look alike come from different tables or passages of the source. These are yes or no findings as the source states them, for the method shown. In cells and extracts the contact can be indirect. Here binding means that the protein was enriched with, or labelled near, the bait; the list need not be complete. For part of these data: No binding means not detected with the bait. Sequences can lack the tags named with a protein.

Assay [1] addresses T1, human MGME1-BirA*-HA (mitochondrial genome maintenance exonuclease 1 fused to BirA R118G and HA) (human) (UniProt Q9BQP7).
T1 sequence: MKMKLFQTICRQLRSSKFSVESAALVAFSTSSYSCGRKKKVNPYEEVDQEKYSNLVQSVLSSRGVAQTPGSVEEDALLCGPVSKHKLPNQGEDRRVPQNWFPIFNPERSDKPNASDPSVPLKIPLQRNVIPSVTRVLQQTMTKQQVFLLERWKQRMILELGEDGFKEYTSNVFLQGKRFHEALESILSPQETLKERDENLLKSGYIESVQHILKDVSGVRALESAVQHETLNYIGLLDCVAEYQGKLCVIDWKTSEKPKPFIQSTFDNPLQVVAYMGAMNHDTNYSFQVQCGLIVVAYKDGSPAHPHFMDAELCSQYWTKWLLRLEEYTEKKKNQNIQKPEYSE
Description: proximity labelling; BioID: HeLa cells transfected with MGME1-BirA*-HA, 50 uM biotin for 6 h from 24 h after transfection; lysates on streptavidin Dynabeads at 4 C overnight; LC-MS/MS; control mitochondrially targeted BirA* (mt-BirA*).

Assay [2] deals with T1, human MGME1-BirA*-HA (mitochondrial genome maintenance exonuclease 1 fused to BirA R118G and HA) (human). The assay is described as above. The source holds these as a separate data set.

For the molecule “catalytic subunit of the mtDNA polymerase (POLGA) (from UniProt P54098 1-1239) (enzyme)”, the binding entry in assay [1] is reported as “binds”.

B1: replicative DNA helicase TWINKLE (enzyme, UniProt Q96RR1 32-684)
chain: APGPPRRRYRKETLQALDMPVLPVTATEIRQYLRGHGIPFQDGHSCLRALSPFAESSQLKGQTGVTTSFSLFIDKTTGHFLCMTSLAEGSWEDFQASVEGRGDGAREGFLLSKAPEFEDSEEVRRIWNRAIPLWELPDQEEVQLADTMFGLTKVTDDTLKRFSVRYLRPARSLVFPWFSPGGSGLRGLKLLEAKCQGDGVSYEETTIPRPSAYHNLFGLPLISRRDAEVVLTSRELDSLALNQSTGLPTLTLPRGTTCLPPALLPYLEQFRRIVFWLGDDLRSWEAAKLFARKLNPKRCFLVRPGDQQPRPLEALNGGFNLSRILRTALPAWHKSIVSFRQLREEVLGELSNVEQAAGLRWSRFPDLNRILKGHRKGELTVFTGPTGSGKTTFISEYALDLCSQGVNTLWGSFEISNVRLARVMLTQFAEGRLEDQLDKYDHWADRFEDLPLYFMTFHGQQSIRTVIDTMQHAVYVYDICHVIIDNLQFMMGHEQLSTDRIAAQDYIIGVFRKFATDNNCHVTLVIHPRKEDDDKELQTASIFGSAKASQEADNVLILQDRKLVTGPGKRYLQVSKNRFDGDVGVFPLEFNKNSLTFSIPPKNKARLKKIKDDTGPVAKKPSSGKKGATTQNSEICSGQAPTPDQPDTSKRSK
Take B1: in assay [2], the binding entry is given as “binds”.

B2: methylcrotonyl-CoA carboxylase (MCCC1) (enzyme, UniProt Q96RQ3 42-725)
chain: TTATGRNITKVLIANRGEIACRVMRTAKKLGVQTVAVYSEADRNSMHVDMADEAYSIGPAPSQQSYLSMEKIIQVAKTSAAQAIHPGCGFLSENMEFAELCKQEGIIFIGPPPSAIRDMGIKSTSKSIMAAAGVPVVEGYHGEDQSDQCLKEHARRIGYPVMIKAVRGGGGKGMRIVRSEQEFQEQLESARREAKKSFNDDAMLIEKFVDTPRHVEVQVFGDHHGNAVYLFERDCSVQRRHQKIIEEAPAPGIKSEVRKKLGEAAVRAAKAVNYVGAGTVEFIMDSKHNFCFMEMNTRLQVEHPVTEMITGTDLVEWQLRIAAGEKIPLSQEEITLQGHAFEARIYAEDPSNNFMPVAGPLVHLSTPRADPSTRIETGVRQGDEVSVHYDPMIAKLVVWAADRQAALTKLRYSLRQYNIVGLHTNIDFLLNLSGHPEFEAGNVHTDFIPQHHKQLLLSRKAAAKESLCQAALGLILKEKAMTDTFTLQAHDQFSPFSSSSGRRLNISYTRNMTLKDGKNNVAIAVTYNHDGSYSMQIEDKTFQVLGNLYSEGDCTYLKCSVNGVASKAKLIILENTIYLFSKEGSIEIDIPVPKYLSSVSSQETQGGPLAPMTGTIEKVFVKAGDKVKAGDSLMVMIAMKMEHTIKSPKDGTVKKVFYREGAQANRHTPLVEFEEEESDKRESE
modifications: naturally biotinylated
Turning to B2, in assay [2], the binding entry is “no binding”.
